Values quoted from earlier work, collected in patent US20130005749A1, “NOVEL FORMULATION AND TREATMENT METHODS” (The University of Queensland, priority 2011, published 2013).
Some results were stated once for a whole list of compounds, not compound by compound.

Test system: inflammatory bowel disease
Conditions: cited from earlier work

Sc1ncnc2nc[nH]c12 [Formulation 6-MP, 3,7-dihydropurine-6-thione]
time to steady state levels of active drug (human, in vivo): ≤ 4 weeks | time-to-onset of clinical activity (in inflammatory bowel disease): 2-4 months
